The subject of the experiment is P388 leukemia ip, CD2F1 mice, survival T/C. Nature of the experiment: NCI In Vivo Anticancer Drug Screen. Data for tumor model P388 Leukemia (intraperitoneal) in CD2F1 (CDF1) mice. The settings on record: T/C endpoint: median survival time, higher T/C = longer survival.
[1] abbreviates: dose: 16.0 mg/kg/injection, schedule: Q01DX009 (ip), vehicle: water.
[2] abbreviates: dose: 25.0 mg/kg/injection, schedule: Q04DX003 (ip), vehicle: saline.

This passage reports T/C and survivor count results from PubChem BioAssay AID330 (DTP/NCI, 2004).

SMILES strings stand for the structures. The list shows only some results of the screen, not a fair sample: it gathers tests that were run many times, whatever their T/C, doses with no T/C, and many T/C values between a quarter and a half above the control. Other doses and runs of a compound stand elsewhere. T/C: endpoint of the treated group in % of that of the vehicle group. Some entries give survivors of the animals treated and no T/C: the source holds a T/C of zero for them, seemingly a mark for toxic or unscored doses. Some doses without a T/C left all or most animals alive at the check, yet need not have been tolerated: survival well below the control is almost never listed, so the zero probably covers shortened survival too. Counts of survivors are from the toxicity check (mostly the fifth day) where no day follows; animals may have died later. Schedules are NCI's codes, read here as Q, the interval in days (D) or hours (H), X, the number of doses. Some entries were tested several times; the results are listed from low to high. Counts like (3×) stand for listed records that agree. For survival time, the PubChem record calls one and a half times the control and up active, and a quarter to a half above the control has no call in these data; cut-offs in other NCI protocols can differ. Some T/C values carry the count of animals alive at the toxicity check (mostly the fifth day); without a count, all were alive then.

Regarding `COc1cccc2c1C(=O)c1c(O)c3c(c(O)c1C2=O)C[C@@](O)(/C(C)=N/NC(=O)c1ccccc1)C[C@@H]3OC1CC(N)C(O)C(C)O1` (some centres undefined), the T/C reads like this: (dose: 0.25 mg/kg/injection, schedule: Q01DX009 (ip), vehicle: water) 102, 106, 109, 120, 123, 127, 135 (2×), 136, 143, 149, 153, 157, 158 % of control; (dose: 0.5 mg/kg/injection, schedule: Q01DX009 (ip), vehicle: water, evaluated on day 30) 110, 111, 125, 126 (2×), 129, 136, 137, 138, 141, 146, 148, 149, 151, 153, 155, 172 % of control; (dose: 0.5 mg/kg/injection, schedule: Q01DX009 (ip), vehicle: water, evaluated on day 35) 148 % of control; (dose: 0.5 mg/kg/injection, schedule: Q01DX009 (ip), vehicle: water, evaluated on day 45) 131 % of control; (dose: 1.0 mg/kg/injection, schedule: Q01DX005 (ip), vehicle: suspension in saline) 131 % of control; (dose: 1.0 mg/kg/injection, schedule: Q01DX009 (ip), vehicle: water, evaluated on day 30) 127, 132, 136, 139, 142, 145, 146, 150 (2×), 152, 153, 154, 155, 156, 157, 165, 180 % of control. Besides, the T/C runs as follows: (dose: 1.0 mg/kg/injection, schedule: Q01DX009 (ip), vehicle: water, evaluated on day 35) 169 % of control; (dose: 1.0 mg/kg/injection, schedule: Q01DX009 (ip), vehicle: water, evaluated on day 45) 134 % of control; (dose: 1.0 mg/kg/injection, schedule: Q01DX009 (ip), vehicle: water, evaluated on day 60) 145 % of control; (dose: 1.0 mg/kg/injection, schedule: Q04DX003 (ip), vehicle: water) 135 % of control; (dose: 1.08 mg/kg/injection, schedule: Q01DX009 (ip), vehicle: saline) 125 % of control; (dose: 1.3 mg/kg/injection, schedule: Q01DX001 (ip), vehicle: water) 135 % of control. The T/C (dose: 1.8 mg/kg/injection, schedule: Q01DX001 (ip), vehicle: water) was 138 % of control; the T/C (dose: 1.8 mg/kg/injection, schedule: Q01DX009 (ip), vehicle: saline) is 141 % of control [9 of 10 alive]; the T/C (dose: 1.94 mg/kg/injection, schedule: Q04DX003 (ip), vehicle: water) was 147 % of control; the T/C (dose: 2.0 mg/kg/injection, schedule: Q01DX005 (ip), vehicle: suspension in saline) was 137 % of control; the T/C (dose: 2.0 mg/kg/injection, schedule: Q01DX009 (ip), vehicle: water, evaluated on day 30) is reported as 132, 140, 142, 145, 148, 155, 160, 163, 164, 165, 169, 170, 172, 173, 180, 182, 184 % of control; the T/C (dose: 2.0 mg/kg/injection, schedule: Q01DX009 (ip), vehicle: water, evaluated on day 35) was 194 % of control. For the same compound, the T/C is, setting by setting: (dose: 2.0 mg/kg/injection, schedule: Q01DX009 (ip), vehicle: water, evaluated on day 45) 166 % of control; (dose: 2.0 mg/kg/injection, schedule: Q01DX009 (ip), vehicle: water, evaluated on day 60) 164 % of control; (dose: 2.4 mg/kg/injection, schedule: Q01DX001 (ip), vehicle: water) 148 % of control; (dose: 4.0 mg/kg/injection, schedule: Q01DX005 (ip), vehicle: suspension in saline) 146 % of control; (dose: 4.0 mg/kg/injection, schedule: Q01DX005 (iv), vehicle: suspension in saline) 135 % of control; (dose: 4.0 mg/kg/injection, schedule: Q01DX009 (ip), vehicle: water, evaluated on day 30) 89, 104, 133, 152, 155, 165, 166, 169, 170, 175, 184, 185, 190, 194, 198, 200, 209 % of control. For the same compound, the T/C (dose: 4.0 mg/kg/injection, schedule: Q01DX009 (ip), vehicle: water, evaluated on day 35) is 287 % of control; the T/C (dose: 4.0 mg/kg/injection, schedule: Q01DX009 (ip), vehicle: water, evaluated on day 45) was 186 % of control; the T/C (dose: 4.0 mg/kg/injection, schedule: Q01DX009 (ip), vehicle: water, evaluated on day 60) is 182 % of control; the T/C (dose: 5.0 mg/kg/injection, schedule: Q01DX009 (ip), vehicle: saline) is 136 % of control; the T/C (dose: 6.0 mg/kg/injection, schedule: Q01DX001 (ip), vehicle: clinical formulation) is 144 % of control; the T/C (dose: 6.0 mg/kg/injection, schedule: Q04DX003 (ip), vehicle: water) was 126 % of control. The T/C by setting is: (dose: 8.0 mg/kg/injection, schedule: Q01DX005 (iv), vehicle: saline) 126 % of control [5 of 6 alive]; (dose: 8.0 mg/kg/injection, schedule: Q01DX009 (ip), vehicle: water, evaluated on day 30) 89, 100, 103, 111, 137, 140, 147, 181, 184, 186, 205, 235, 245 (2×), 247 % of control; (dose: 8.0 mg/kg/injection, schedule: Q01DX009 (ip), vehicle: water, evaluated on day 35) 95 % of control; (dose: 8.0 mg/kg/injection, schedule: Q01DX009 (ip), vehicle: water, evaluated on day 45) 228 % of control; (dose: 8.0 mg/kg/injection, schedule: Q01DX009 (ip), vehicle: water, evaluated on day 60) 216 % of control; (dose: 12.0 mg/kg/injection, schedule: Q04DX003 (ip), vehicle: water) 142 % of control. In addition, the T/C is, setting by setting: (dose: 15.0 mg/kg/injection, schedule: Q04DX003 (ip), vehicle: water) 127 % of control; (dose: 16.0 mg/kg/injection, schedule: Q01DX005 (ip), vehicle: saline) 131 % of control; under setting [1], 93, 184, 192, 227 % of control; (dose: 16.0 mg/kg/injection, schedule: Q04DX003 (ip), vehicle: water) 138 % of control; under setting [2], 125 % of control. Further, the survivor count was 6 of 6 (dose: 8.0 mg/kg/injection, schedule: Q01DX009 (ip), vehicle: water); 9 of 10 (dose: 13.9 mg/kg/injection, schedule: Q01DX009 (ip), vehicle: saline); 10 of 10 (dose: 16.0 mg/kg/injection, schedule: Q01DX009 (ip), vehicle: other); 10 of 10 and 6 of 6 (2×) under setting [1]; 9 of 10 (dose: 22.2 mg/kg/injection, schedule: Q04DX003 (ip), vehicle: saline); 5 of 10 (dose: 37.0 mg/kg/injection, schedule: Q01DX001 (ip), vehicle: saline).

As to `COC(=O)c1nc(N)nc(C(=O)OC)c1C(=O)/C=C/c1ccccc1`, the survivor count (dose: 240.0 mg/kg/injection, schedule: Q01DX005 (ip), vehicle: saline with Tween-80) is on record as 0 of 6.

For `COC(=O)C12OCC34C(CC5C(C)=C(O)C(=O)CC5(C)C3C(O)C1O)OC(=O)C(OC(=O)C=C(C)C)C24` (centres undefined), the survivor count (dose: 1.0 mg/kg/injection, schedule: Q01DX009 (ip), vehicle: saline) is 6 of 6.

As for `CCC(=O)N(C)C(C)C(=O)OC1CC(=O)N(C)c2cc(cc(OC)c2Cl)CC(CBr)=C/C=C/C(OC)C2(O)CC(OC(=O)N2)C(C)C2OC12C` (centres undefined), the T/C (dose: 2.0 micrograms/kg/injection, schedule: Q01DX009 (ip), vehicle: saline + alcohol) was 126 % of control; the T/C (dose: 4.0 micrograms/kg/injection, schedule: Q01DX009 (ip), vehicle: saline + alcohol) was 126 and 137 % of control; the T/C (dose: 8.0 micrograms/kg/injection, schedule: Q01DX009 (ip), vehicle: saline + alcohol) was 128 and 137 % of control; the T/C (dose: 16.0 micrograms/kg/injection, schedule: Q01DX009 (ip), vehicle: saline + alcohol) was 137 and 149 % of control; the T/C (dose: 32.0 micrograms/kg/injection, schedule: Q01DX009 (ip), vehicle: saline + alcohol) is 144 % of control. In addition, the survivor count reads like this: (dose: 64.0 micrograms/kg/injection, schedule: Q01DX009 (ip), vehicle: saline + alcohol) 6 of 6; (dose: 128.0 micrograms/kg/injection, schedule: Q01DX009 (ip), vehicle: saline + alcohol) 3 of 6.

Regarding `CCOC(=O)C1=C(C)O/C(=C/c2cccc(Cl)c2)C1=O`, for the setting “dose: 200.0 mg/kg/injection, schedule: Q01DX005 (ip), vehicle: saline with Tween-80”, the T/C is 125 % of control. Besides, the survivor count (dose: 400.0 mg/kg/injection, schedule: Q01DX005 (ip), vehicle: saline with Tween-80) is recorded as 5 of 6.

As for `CC(=O)OC(CC(=O)CC(O)(C(F)(F)F)C(F)(F)F)(C(F)(F)F)C(F)(F)F`, the survivor count under setting [2] was 6 of 6.
